Not every detail of the peptide structures is certain; ends, links or a residue may be inferred. Peptide text beside a SMILES is read from it.
System: ischemia-induced acute renal failure
Assay: Ischemia-induced acute renal failure study
Assay type: in vivo, rat
Settings: infused 60 minutes prior to and following the ischemic period; N=23; vehicle rats 83%

For `CC[C@H](C)[C@H](NC(=O)[C@H](CC(=O)O)NC(=O)[C@H](CC(C)C)NC(=O)[C@H](NC(C)=O)C1c2ccccc2CCc2ccccc21)C(=O)N[C@H](C(=O)N[C@@H](Cc1c[nH]c2ccccc12)C(=O)O)[C@@H](C)CC` [Example 1, Ac-D-Bhg-Leu-Asp-Ile-Ile-Trp] (HELM PEPTIDE1{[ac].[O=C([C@H](N[*:1])C1c2ccccc2CCc2ccccc21)[*:2]].L.D.I.I.W}$$$$V2.0), the mortality was 52%.
